Data taken from publication PMC10990277.
No constants are given. Whether binding was seen depends on the method and setting. In cells and extracts the contact can be indirect. These calls come from enrichment with a bait or labelling near it, and not all partners need be listed.

The chains behind the UniProt entries cited, without tags or fusion partners.
UniProt P0DTC4: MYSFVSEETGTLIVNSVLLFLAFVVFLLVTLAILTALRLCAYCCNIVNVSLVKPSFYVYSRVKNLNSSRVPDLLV
UniProt Q07157: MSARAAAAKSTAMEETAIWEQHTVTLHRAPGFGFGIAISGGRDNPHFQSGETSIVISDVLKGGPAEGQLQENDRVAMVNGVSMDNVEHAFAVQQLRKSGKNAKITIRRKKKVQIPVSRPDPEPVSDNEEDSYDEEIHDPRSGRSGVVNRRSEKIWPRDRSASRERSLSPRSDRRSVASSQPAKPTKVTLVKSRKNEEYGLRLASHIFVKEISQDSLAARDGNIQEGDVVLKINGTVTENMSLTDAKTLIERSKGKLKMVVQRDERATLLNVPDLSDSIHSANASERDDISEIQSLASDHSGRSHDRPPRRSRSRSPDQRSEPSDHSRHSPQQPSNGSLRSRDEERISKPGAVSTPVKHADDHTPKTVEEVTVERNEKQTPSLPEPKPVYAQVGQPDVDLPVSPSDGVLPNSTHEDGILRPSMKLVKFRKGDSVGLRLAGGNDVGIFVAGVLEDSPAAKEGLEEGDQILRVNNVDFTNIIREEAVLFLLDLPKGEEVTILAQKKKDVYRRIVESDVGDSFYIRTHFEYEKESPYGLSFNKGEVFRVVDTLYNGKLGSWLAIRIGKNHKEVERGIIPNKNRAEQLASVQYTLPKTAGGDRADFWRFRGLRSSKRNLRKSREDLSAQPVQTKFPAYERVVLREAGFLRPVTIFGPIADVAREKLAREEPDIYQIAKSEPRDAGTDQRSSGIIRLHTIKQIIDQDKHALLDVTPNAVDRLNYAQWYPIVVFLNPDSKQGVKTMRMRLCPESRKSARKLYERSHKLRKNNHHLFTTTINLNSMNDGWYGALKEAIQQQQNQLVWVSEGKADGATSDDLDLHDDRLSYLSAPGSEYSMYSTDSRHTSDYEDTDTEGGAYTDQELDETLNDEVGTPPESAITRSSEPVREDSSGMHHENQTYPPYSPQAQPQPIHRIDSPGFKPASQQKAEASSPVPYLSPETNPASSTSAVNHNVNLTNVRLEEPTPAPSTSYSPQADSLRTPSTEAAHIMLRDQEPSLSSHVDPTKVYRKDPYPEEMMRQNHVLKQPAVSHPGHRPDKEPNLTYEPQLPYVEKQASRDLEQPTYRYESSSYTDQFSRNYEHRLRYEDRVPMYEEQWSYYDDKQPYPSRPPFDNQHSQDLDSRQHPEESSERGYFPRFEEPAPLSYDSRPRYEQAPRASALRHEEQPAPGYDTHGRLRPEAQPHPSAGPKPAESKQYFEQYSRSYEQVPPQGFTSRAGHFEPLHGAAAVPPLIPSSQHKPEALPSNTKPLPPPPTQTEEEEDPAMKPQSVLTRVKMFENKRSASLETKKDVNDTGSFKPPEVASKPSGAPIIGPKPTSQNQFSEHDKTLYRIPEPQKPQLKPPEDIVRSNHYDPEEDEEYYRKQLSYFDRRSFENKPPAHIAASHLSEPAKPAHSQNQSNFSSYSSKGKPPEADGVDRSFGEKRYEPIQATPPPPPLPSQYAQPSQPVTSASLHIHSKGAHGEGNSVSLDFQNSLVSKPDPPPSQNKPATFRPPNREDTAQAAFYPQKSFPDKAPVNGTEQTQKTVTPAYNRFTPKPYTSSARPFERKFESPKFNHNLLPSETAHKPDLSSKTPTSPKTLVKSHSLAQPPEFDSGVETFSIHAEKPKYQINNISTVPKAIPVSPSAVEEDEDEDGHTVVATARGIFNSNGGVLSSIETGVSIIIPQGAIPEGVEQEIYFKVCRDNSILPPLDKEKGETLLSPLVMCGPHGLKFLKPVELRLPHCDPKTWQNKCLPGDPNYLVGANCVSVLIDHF

Key:
[1] = target: E-HA/TurboID^Site3 (SARS-CoV-2) (UniProt P0DTC4); assay: proximity labelling
[2] = target: E-HA/TurboID^Site4 (SARS-CoV-2) (UniProt P0DTC4); assay: proximity labelling

Substance: tight junction protein–1 (TJP1) (from UniProt Q07157 1-1748)
- binding [1]: binds
- binding [2]: binds
